No constants are given. Whether binding was seen depends on the method and setting. Binding seen in cells or lysates may run through a third protein. Some results given as binding are weak or reduced against the parent protein; the word gives no strength.
Target: SMAD3 (mouse (endogenous in RAW264.7)) (UniProt Q8BUN5)
Test: co-IP; 500 μg of cytosolic or nuclear proteins of RAW264.7 macrophages (TGF-β1 or PBS treatment) incubated overnight at 4°C with anti-SMAD3 or a homologous IgG, Protein A/G agarose beads 2 hours at 4°C; immunoblot with anti-SMAD3 or anti-STAT3

Amino acid sequences for entries named in this document (tags omitted).
UniProt Q8BUN5: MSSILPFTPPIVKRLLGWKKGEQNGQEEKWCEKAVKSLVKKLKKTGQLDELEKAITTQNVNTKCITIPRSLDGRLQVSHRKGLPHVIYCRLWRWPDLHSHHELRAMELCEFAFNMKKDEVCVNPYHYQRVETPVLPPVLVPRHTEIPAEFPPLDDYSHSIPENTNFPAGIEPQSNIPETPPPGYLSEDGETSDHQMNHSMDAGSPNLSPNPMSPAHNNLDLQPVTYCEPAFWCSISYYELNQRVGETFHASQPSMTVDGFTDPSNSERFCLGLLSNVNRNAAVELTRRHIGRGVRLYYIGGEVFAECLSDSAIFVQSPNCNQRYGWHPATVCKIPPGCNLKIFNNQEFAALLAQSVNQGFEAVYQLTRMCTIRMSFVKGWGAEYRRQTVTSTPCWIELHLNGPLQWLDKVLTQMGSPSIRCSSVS
UniProt P42227: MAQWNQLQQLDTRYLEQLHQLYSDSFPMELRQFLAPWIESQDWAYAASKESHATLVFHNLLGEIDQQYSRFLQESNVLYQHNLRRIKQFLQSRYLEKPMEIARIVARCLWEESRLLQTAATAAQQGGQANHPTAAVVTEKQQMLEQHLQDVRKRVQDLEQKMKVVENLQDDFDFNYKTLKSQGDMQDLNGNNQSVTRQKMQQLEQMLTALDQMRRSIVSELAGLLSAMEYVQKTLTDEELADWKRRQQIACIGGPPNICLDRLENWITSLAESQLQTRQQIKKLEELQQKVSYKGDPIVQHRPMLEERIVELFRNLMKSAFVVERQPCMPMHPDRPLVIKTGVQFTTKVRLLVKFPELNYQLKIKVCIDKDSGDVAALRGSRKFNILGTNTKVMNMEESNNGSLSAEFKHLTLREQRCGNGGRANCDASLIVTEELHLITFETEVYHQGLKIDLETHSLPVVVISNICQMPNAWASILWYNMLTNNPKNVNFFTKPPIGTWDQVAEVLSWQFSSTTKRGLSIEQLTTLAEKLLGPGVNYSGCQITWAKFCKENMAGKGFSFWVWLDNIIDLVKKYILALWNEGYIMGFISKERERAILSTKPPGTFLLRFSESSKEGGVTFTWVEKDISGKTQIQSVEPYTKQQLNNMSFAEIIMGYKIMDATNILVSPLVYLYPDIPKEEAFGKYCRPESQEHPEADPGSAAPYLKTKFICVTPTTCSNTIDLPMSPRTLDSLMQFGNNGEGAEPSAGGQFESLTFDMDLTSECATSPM

binding: binds
Substance: STAT3 (from UniProt P42227 1-770)

— article PMC11128204
